According to publication PMC10802709:
Results are given in words; binding and its absence hold for the method and conditions named. Binding seen in cells or lysates may run through a third protein. Some results given as binding are weak or reduced against the parent protein; the word gives no strength.

Chains of the proteins cited; added tags and fusions are not shown. Lines headed by an entry give the natural chain unless they say otherwise; changes in a name come on top.
UniProt P61586: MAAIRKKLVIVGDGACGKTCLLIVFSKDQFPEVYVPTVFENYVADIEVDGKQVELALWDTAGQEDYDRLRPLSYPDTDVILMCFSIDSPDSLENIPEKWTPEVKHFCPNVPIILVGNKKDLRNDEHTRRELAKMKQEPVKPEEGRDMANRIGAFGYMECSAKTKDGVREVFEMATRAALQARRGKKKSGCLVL

Target: GFP-RhoA Q63L (constitutively active form of RhoA) (UniProt P61586)
Assay: co-IP; GFP-trap magnetic agarose beads in nuclei-free cytoplasmic extract (digitonin permeabilization, 2 mM MgCl2, 5 mM GTP) of HT1080 cells stably expressing GFP-RhoA Q63L, serum-starved then released 4 h into S phase; 1.5 h at 4°C; washes with TTBS, 0.05% NP40; blot with anti-anillin; binding control magnetic agarose as control

binding: binds
B1: anillin (protein, UniProt Q9NQW6 1-1124)
chain: MDPFTEKLLERTRARRENLQRKMAERPTAAPRSMTHAKRARQPLSEASNQQPLSGGEEKSCTKPSPSKKRCSDNTEVEVSNLENKQPVESTSAKSCSPSPVSPQVQPQAADTISDSVAVPASLLGMRRGLNSRLEATAASSVKTRMQKLAEQRRRWDNDDMTDDIPESSLFSPMPSEEKAASPPRPLLSNASATPVGRRGRLANLAATICSWEDDVNHSFAKQNSVQEQPGTACLSKFSSASGASARINSSSVKQEATFCSQRDGDASLNKALSSSADDASLVNASISSSVKATSPVKSTTSITDAKSCEGQNPELLPKTPISPLKTGVSKPIVKSTLSQTVPSKGELSREICLQSQSKDKSTTPGGTGIKPFLERFGERCQEHSKESPARSTPHRTPIITPNTKAIQERLFKQDTSSSTTHLAQQLKQERQKELACLRGRFDKGNIWSAEKGGNSKSKQLETKQETHCQSTPLKKHQGVSKTQSLPVTEKVTENQIPAKNSSTEPKGFTECEMTKSSPLKITLFLEEDKSLKVTSDPKVEQKIEVIREIEMSVDDDDINSSKVINDLFSDVLEEGELDMEKSQEEMDQALAESSEEQEDALNISSMSLLAPLAQTVGVVSPESLVSTPRLELKDTSRSDESPKPGKFQRTRVPRAESGDSLGSEDRDLLYSIDAYRSQRFKETERPSIKQVIVRKEDVTSKLDEKNNAFPCQVNIKQKMQELNNEINMQQTVIYQASQALNCCVDEEHGKGSLEEAEAERLLLIATGKRTLLIDELNKLKNEGPQRKNKASPQSEFMPSKGSVTLSEIRLPLKADFVCSTVQKPDAANYYYLIILKAGAENMVATPLASTSNSLNGDALTFTTTFTLQDVSNDFEINIEVYSLVQKKDPSGLDKKKKTSKSKAITPKRLLTSITTKSNIHSSVMASPGGLSAVRTSNFALVGSYTLSLSSVGNTKFVLDKVPFLSSLEGHIYLKIKCQVNSSVEERGFLTIFEDVSGFGAWHRRWCVLSGNCISYWTYPDDEKRKNPIGRINLANCTSRQIEPANREFCARRNTFELITVRPQREDDRETLVSQCRDTLCVTKNWLSADTKEERDLWMQKLNQVLVDIRLWQPDACYKPIGKP
